Median seed-adjusted z-score data for 107 sequences are collected here from PubChem BioAssay AID1347426 (Functional Genomics Laboratory (NCATS/FGL), 2020).

The campaign covered roughly 31,000 sequences. About 1,400 (4.5%) were called active.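 Rule for the calls: active = median seed-adjusted z-score above 1 or below -1; inactive = the rest.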 This is one part of the list.

The assay can be described thus: Novel Modifiers of Survival Motor Neuron (SMN) Protein: Gene Identification via Genome-wide siRNA Screen.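 Note: luminescence tracks full-length SMN protein made from the SMN2 reporter.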 Particulars: HEK293T SMN2-luciferase reporter, siRNA knockdown, 72 h; actives lie on both sides. The essentials:
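Luciferase signal, proportional to full-length SMN made from an SMN2 cDNA reporter in stable HEK293T cells, was read 72 h after siRNA reverse transfection. Values were expressed as MAD scores after non-targeting-control normalization and log10 conversion; seed analysis flagged off-targets.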
On the technique in general: Reporter assays use an easily measured gene product as a stand-in for the process of interest.
As for AGCUCAAGAAGUACACCAATT against CHST12, the median seed-adjusted z-score was inactive: 0.

For CUGCAGUACUGUUGCCUGATT against PRIC285, the median seed-adjusted z-score is inactive: 0.

Consider GGAACUGUUUAUAAGGGUATT against RAF1, for which the median seed-adjusted z-score was inactive: 0.

For the sequence AAAAGUACUUUGUCGGUUATT against ALOX5AP, the median seed-adjusted z-score was inactive: -0.0169.

On to GGCCCUAUGUAUAUGCUUUTT against AK3, for which the median seed-adjusted z-score was inactive: -0.0313.

Turning to GGAACAUCUUGUAGACAUUTT against RNF135, the median seed-adjusted z-score was inactive: 0.581.

Take UCAUGACUGUUGCUACAAATT against PLA2G2A: the median seed-adjusted z-score is inactive: 0.809.

For the sequence CCGUGUUUCUCAUCGAGAUTT against ABP1, the median seed-adjusted z-score was inactive: -0.241.

GCAUUGUCCUGGUUCCCAATT against CYP27A1: the median seed-adjusted z-score was inactive: -0.391.

Consider GAUUGACCGUGCAAAAUCATT against PI4K2B, for which the median seed-adjusted z-score was inactive: 0.0345.

With GACUCGAUUUUACAGGAAATT against OGN, the median seed-adjusted z-score was inactive: 0.0889.

For GAAUGGAAGUGGAUGCAGATT against ZMYND19, the median seed-adjusted z-score is inactive: 0.369.

Regarding GAAUACUUCGAGAACAUAATT against MME, the median seed-adjusted z-score was inactive: 0.129.

Take CCUCUUAUAUCAAGCAGCATT against FOXF1: the median seed-adjusted z-score is inactive: -0.148.

For the sequence GGCCCUGAGUAAUCGCUUATT against CEBPB, the median seed-adjusted z-score was inactive: -0.748.

As for GUACUACCGUUUCAACGAATT against MMP14, the median seed-adjusted z-score was inactive: -0.0145.

For GGAGCAGUCACUUACAGAATT against PINK1, the median seed-adjusted z-score was inactive: 0.192.

Regarding GACCAGAACAUGUACCCUATT against SHROOM4, the median seed-adjusted z-score is inactive: 0.825.

On to CCUUGUUCUUCUACCUAUATT against SYT14, for which the median seed-adjusted z-score is inactive: 0.0794.

For the sequence CGAUGAUCAAUUACGAAAATT against PPP2R3C, the median seed-adjusted z-score is inactive: 0.295.

Take AAGUGACUCUAGUCGUUUATT against REM2: the median seed-adjusted z-score is inactive: 0.109.

With AUGUAAACAUUUACCAGAATT against CASZ1, the median seed-adjusted z-score was inactive: 0.263.

Regarding GAGAGACAGAAGUACGAAATT against P4HA1, the median seed-adjusted z-score is inactive: -0.293.

With GCACAGUCUGAAGACGAGATT against ZNF783, the median seed-adjusted z-score is inactive: 0.284.

For GGAAAGAGAUCUACCGCAATT against MYST1, the median seed-adjusted z-score was inactive: 0.

In the case of GCGAGUUGCUGCUAGUGCATT against B3GNT6, the median seed-adjusted z-score is inactive: 0.00618.

GACGAAGAGUGGUCAGUGATT against CECR1: the median seed-adjusted z-score is inactive: 0.00187.

In the case of GAAAUCAGCCUAUGGUUUATT against NME2, the median seed-adjusted z-score was inactive: -0.0728.

As for CCCUUAAUCUACAAUAUCATT against PHTF1, the median seed-adjusted z-score is inactive: 0.0129.

Take CUCGAUACCUUAGAAGAUATT against PDE4B: the median seed-adjusted z-score is inactive: 0.546.

As for CAACUACACUGUCAACUACTT against DTX2, the median seed-adjusted z-score was inactive: 0.0597.

As to GGCGGAUUGACAGAAGUAUTT against CDC42SE2, the median seed-adjusted z-score was inactive: 0.381.

Regarding AGACAGUGAUUGCCGUCAATT against E2F2, the median seed-adjusted z-score is inactive: -0.382.

As for GAUCUUUCCUUCUUAAAGATT against EGFR, the median seed-adjusted z-score is inactive: 0.263.

Take AGAGCCCACUAAUGAAGCATT against CHRM4: the median seed-adjusted z-score is inactive: -0.856.

As for GAUUGUCAUUGGAAGUAUUTT against TACR3, the median seed-adjusted z-score was inactive: 0.0904.

Consider GCUCGACUAUCCAAAAUCATT against COX10, for which the median seed-adjusted z-score is inactive: 0.339.

With GCACAACUCGUCACUCUUUTT against TLX3, the median seed-adjusted z-score is inactive: 0.0771.

Take CCAUCACUUUUGACCCGUUTT against USP19: the median seed-adjusted z-score was inactive: 0.47.

With GCCUCUUCGUCAUCUCCAATT against MS4A10, the median seed-adjusted z-score was inactive: -0.24.

With GCAUGGAAGUUGCAACUGUTT against KCND2, the median seed-adjusted z-score is inactive: -0.245.

GGAAGUACAUUUACAGUCUTT against CNGA3: the median seed-adjusted z-score is inactive: -0.125.

Consider GACCAACAAGUUCAACUAUTT against SERPINE1, for which the median seed-adjusted z-score is inactive: 0.18.

As to UCAAAGAUCUGAAAUCUGATT against ANXA11, the median seed-adjusted z-score was inactive: 0.21.

GCCUUGACCUGAACUGCGATT against KCND1: the median seed-adjusted z-score is inactive: -0.359.

As to CUGACAUUAUGCAUGCUAATT against CYP4F22, the median seed-adjusted z-score is inactive: 0.383.

Consider UCACCUCUAUGACACGAUUTT against RAB7L1, for which the median seed-adjusted z-score was inactive: 0.243.

For GGAUAAAUGAGGAGGAUCATT against CKMT2, the median seed-adjusted z-score is inactive: -0.862.

Take GGAGAUGGACCAACCCAGATT against TENC1: the median seed-adjusted z-score was inactive: 0.892.

For GCGUAUUUGAAAUGCCCAATT against VAPA, the median seed-adjusted z-score was inactive: -0.623.

As to GCCGUGCUGUCUAAUCAAATT against HOXB9, the median seed-adjusted z-score was inactive: 0.717.

Take CCUACAAUGUGGUGCAUAUTT against DYRK4: the median seed-adjusted z-score was inactive: -0.824.

Regarding GGUUUUACCUAGACGUGAATT against PURG, the median seed-adjusted z-score is inactive: 0.448.

With GUGCGGUAGCUACUUGUUUTT against RRAD, the median seed-adjusted z-score was inactive: -0.267.

As to CGAACUUAAUAGUACCCUUTT against NR0B1, the median seed-adjusted z-score was inactive: -0.526.

As for CGCCUCAACCUGAUCAUCATT against ENPP7, the median seed-adjusted z-score was inactive: -0.478.

Consider CACUAGACGUGUUGUCAUUTT against RNASE4, for which the median seed-adjusted z-score is inactive: -0.0112.

Consider AGUGCUCAGUAAAGCAAUATT against PTGER4, for which the median seed-adjusted z-score is inactive: -0.289.

In the case of GGAAGAACGGUGUUAGUUATT against ABCB10, the median seed-adjusted z-score was inactive: -0.1.

For the sequence GGGUUUCUGUGAGAGACAATT against UBE2F, the median seed-adjusted z-score was inactive: 0.

GAUCCUAUUAUAUAAUGGATT against CTSA: the median seed-adjusted z-score is inactive: 0.0897.

Consider GGACUUUGCCGGAUUCACUTT against OCA2, for which the median seed-adjusted z-score is inactive: 0.457.

As for CGAUGUGCACUACGACUUUTT against HMHA1, the median seed-adjusted z-score was inactive: -0.285.

In the case of CUCCUUAUCUAUACCAAAATT against SLC10A2, the median seed-adjusted z-score is inactive: -0.219.

With AGAGAAGUCGGAAGAAGCATT against BATF3, the median seed-adjusted z-score is inactive: 0.698.

For CGUUCUCCAUUGUCACCAATT against CAMK2B, the median seed-adjusted z-score is inactive: 0.0305.

Turning to GGGUCUAAGUCAUUCGACUTT against LAMA2, the median seed-adjusted z-score was inactive: 0.0733.

For the sequence GGAUCGUGGUUGCAGGGAUTT against DNASE1, the median seed-adjusted z-score is inactive: -0.35.

In the case of GAAUGAAACAACUGAUUAATT against PDIK1L, the median seed-adjusted z-score was inactive: 0.0682.

Take GGCCUGAGAUCCAACUGCATT against SHBG: the median seed-adjusted z-score is inactive: 0.587.

On to GGAGCGGAGAGAACGCAUUTT against TRIM17, for which the median seed-adjusted z-score is inactive: 0.574.

For GCUGGAAGCUGCUCAAAGATT against SOX4, the median seed-adjusted z-score was inactive: -0.188.

Regarding CGUGUAACACUGCAUCGGATT against MGMT, the median seed-adjusted z-score was inactive: -0.0549.

In the case of GGGAAAGCUGGACUACUAATT against PIK3CB, the median seed-adjusted z-score was inactive: 0.0911.

Consider GAGUGCCGGUAUUCAAGUATT against ALDH1L1, for which the median seed-adjusted z-score is inactive: 0.0289.

For the sequence UGCCCUUCAUAGACGCAUATT against UPB1, the median seed-adjusted z-score is inactive: -0.0341.

As to GCACAUAUGAGCUAGUGUATT against TRIM3, the median seed-adjusted z-score was inactive: -0.215.

On to GCCUAUGUCAGAUCAGUAUTT against AP3D1, for which the median seed-adjusted z-score is inactive: 0.213.

As for GCCUGUCAGUGAUACUGAUTT against XPR1, the median seed-adjusted z-score was inactive: -0.024.

As for GGAUGUAGAGAAUGAGCUATT against RUFY2, the median seed-adjusted z-score is inactive: 0.

As to CAGCGAUGCUUGUAGCACATT against GPR125, the median seed-adjusted z-score was inactive: 0.516.

For the sequence GGAUCAUGUUUGGAGCUAATT against GBA2, the median seed-adjusted z-score was inactive: 0.143.

On to ACACGGCAGUGGAAAGGAATT against CHRAC1, for which the median seed-adjusted z-score was inactive: 0.193.

As to AGACGGUAGAGAUUCUAAATT against 5-Sep, the median seed-adjusted z-score is inactive: -0.0749.

Take CAGAUUUAAUAGACGAGUATT against PRKAR2A: the median seed-adjusted z-score was inactive: 0.213.

Take CAUGGAUCCUAGCAAGAUUTT against KLKBL4: the median seed-adjusted z-score was inactive: -0.0132.

Turning to GUAAAGAUGCUACUGUAUATT against GDI1, the median seed-adjusted z-score is inactive: 0.198.

On to CUCAAGUCGUUGGACCAGATT against HIPK4, for which the median seed-adjusted z-score was inactive: 0.

As to GGAACGGCUUCAUCUCCAATT against CALN1, the median seed-adjusted z-score is inactive: 0.0753.

On to GCAGUGGAGUAUAACACCATT against SEMA6A, for which the median seed-adjusted z-score was inactive: -0.192.

Take GCUUGGAAGAAAUCGCUGATT against CA9: the median seed-adjusted z-score was inactive: 0.0833.

Regarding ACAUCUCGCUGAAGGUUGATT against TEKT2, the median seed-adjusted z-score is inactive: -0.349.

CGUGCGGAAUUGUUCCUCUTT against CYP2B6: the median seed-adjusted z-score is inactive: 0.454.

On to GGAAAGUCUUUAGAUACAATT against ZNF17, for which the median seed-adjusted z-score is inactive: 0.579.

Take GACCCACUCCAAUUCUAGATT against TFAP2D: the median seed-adjusted z-score was inactive: 0.

As for GCAGAUGGAUGGACUGAGATT against SLC25A45, the median seed-adjusted z-score was inactive: -0.246.

With CUUGUCUCAUUGUCAAUAATT against TAT, the median seed-adjusted z-score was inactive: 0.257.

For the sequence CGUACAAACUGAUGUCCUUTT against AP4B1, the median seed-adjusted z-score was inactive: 0.0278.

As to GGAGCAUAUGCGAACAAUATT against RAB28, the median seed-adjusted z-score was inactive: 0.114.

On to GCUCAUCGACAUCAAAGUUTT against PRPF19, for which the median seed-adjusted z-score was inactive: -0.485.

Turning to GGCGUACGGUGAGAACAUUTT against ATP1B1, the median seed-adjusted z-score was inactive: 0.971.

Consider CCCUAAUACCAGAAUAGGATT against CYBB, for which the median seed-adjusted z-score was inactive: 0.0487.

Regarding GAAAUUGUCCAUAUAGAUATT against PITPNB, the median seed-adjusted z-score was inactive: 0.57.

GCAACUGCGUAACUGAUGATT against BAG5: the median seed-adjusted z-score was inactive: -0.0153.

With CAUUCGAAACGAAGACAAATT against DNAJB1, the median seed-adjusted z-score was inactive: 0.466.

In the case of GCUCUGUAAUAGUCGACUATT against TOPBP1, the median seed-adjusted z-score was inactive: 0.0888.

For AGUACUCCGUCAUGAUCAATT against NDUFA3, the median seed-adjusted z-score was inactive: -0.062.
